Measurements published in PMC8408152.
These are yes or no findings as the source states them, for the method shown. In cells and extracts the contact can be indirect. Some entries that bind do so weakly or less than the wild type. Where a sequence is shown, tags or fusion partners need not be part of it.

By UniProt entry, the sequences of proteins in these tests, tags left out.
UniProt O95166: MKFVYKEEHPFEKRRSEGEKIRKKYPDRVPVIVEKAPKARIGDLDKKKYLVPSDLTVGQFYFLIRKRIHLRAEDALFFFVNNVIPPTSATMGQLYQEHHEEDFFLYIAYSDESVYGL

Target: T1, GABAARγ2-GFP (UniProt P18507)
T1 sequence: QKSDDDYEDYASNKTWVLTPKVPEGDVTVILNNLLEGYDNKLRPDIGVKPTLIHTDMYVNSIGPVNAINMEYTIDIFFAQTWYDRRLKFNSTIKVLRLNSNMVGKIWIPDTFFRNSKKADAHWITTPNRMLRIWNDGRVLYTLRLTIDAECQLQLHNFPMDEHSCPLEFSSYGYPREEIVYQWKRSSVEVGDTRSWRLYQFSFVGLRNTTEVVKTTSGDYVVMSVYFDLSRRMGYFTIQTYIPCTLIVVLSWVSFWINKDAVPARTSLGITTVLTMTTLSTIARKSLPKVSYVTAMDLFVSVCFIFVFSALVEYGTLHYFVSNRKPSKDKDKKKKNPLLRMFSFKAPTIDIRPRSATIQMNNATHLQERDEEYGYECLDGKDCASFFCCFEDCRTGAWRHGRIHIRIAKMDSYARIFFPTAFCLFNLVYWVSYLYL
Test: co-IP; WT and ATG4D-deficient HEK293T cells overexpressing HA-GABARAP and GABAARγ2-GFP; same protocol as for cerebellum; GFP-Trap agarose beads for 2 h to precipitate the receptor; IgG control

Substance: HA-GABARAP (from UniProt O95166 1-117)
- binding: binds
